Laboratory results taken from PMC8344019.
Results are given in words; binding and its absence hold for the method and conditions named. Binding seen in cells or lysates may run through a third protein. Some binding calls cover weakened binding; strength is not graded here.

Chains of the proteins cited; added tags and fusions are not shown.
UniProt P17182: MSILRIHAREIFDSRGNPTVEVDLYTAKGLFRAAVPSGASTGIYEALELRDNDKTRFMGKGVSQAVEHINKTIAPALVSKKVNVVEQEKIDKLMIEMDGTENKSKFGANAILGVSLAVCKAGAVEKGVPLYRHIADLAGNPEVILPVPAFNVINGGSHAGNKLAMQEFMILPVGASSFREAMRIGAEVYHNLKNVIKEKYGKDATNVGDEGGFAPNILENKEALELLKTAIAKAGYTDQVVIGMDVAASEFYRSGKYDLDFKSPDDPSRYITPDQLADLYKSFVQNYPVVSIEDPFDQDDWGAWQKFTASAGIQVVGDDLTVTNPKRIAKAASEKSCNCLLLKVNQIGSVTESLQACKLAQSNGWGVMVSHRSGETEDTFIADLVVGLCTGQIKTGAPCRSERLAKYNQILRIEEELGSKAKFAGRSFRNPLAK

Target: enolase 1 (Eno1) (mouse (endogenous in EO771)) (UniProt P17182)
Assay: co-IP; EO771 protein extracts (RIPA lysis buffer) precleared with protein A agarose beads and rabbit IgG, immunoprecipitated overnight with beads conjugated with anti-Eno1 antibodies; Western blot with anti-CD44 and anti-Eno1

- binding: binds
B1: CD44, a transmembrane adhesion receptor (receptor, UniProt P15379 23-778)
chain: QIDLNVTCRYAGVFHVEKNGRYSISRTEAADLCQAFNSTLPTMDQMKLALSKGFETCRYGFIEGNVVIPRIHPNAICAANHTGVYILVTSNTSHYDTYCFNASAPPEEDCTSVTDLPNSFDGPVTITIVNRDGTRYSKKGEYRTHQEDIDASNIIDDDVSSGSTIEKSTPEGYILHTYLPTEQPTGDQDDSFFIRSTLATIASTVHSKSHAAAQKQNNWIWSWFGNSQSTTQTQEPTTSATTALMTTPETPPKRQEAQNWFSWLFQPSESKSHLHTTTKMPGTESNTNPTGWEPNEENEDETDTYPSFSGSGIDDDEDFISSTIATTPRVSARTEDNQDWTQWKPNHSNPEVLLQTTTRMADIDRISTSAHGENWTPEPQPPFNNHEYQDEEETPHATSTTPNSTAEAAATQQETWFQNGWQGKNPPTPSEDSHVTEGTTASAHNNHPSQRITTQSQEDVSWTDFFDPISHPMGQGHQTESKDTDSSHSTTLQPTAAPNTHLVEDLNRTGPLSVTTPQSHSQNFSTLHGEPEEDENYPTTSILPSSTKSSAKDARRGGSLPTDTTTSVEGYTFQYPDTMENGTLFPVTPAKTEVFGETEVTLATDSNVNVDGSLPGDRDSSKDSRGSSRTVTHGSELAGHSSANQDSGVTTTSGPMRRPQIPEWLIILASLLALALILAVCIAVNSRRRCGQKKKLVINGGNGTVEDRKPSELNGEASKSQEMVHLVNKEPSETPDQCMTADETRNLQSVDMKIGV
